# The list shows a part of the results. Many values rest on one well or one pass, so single values are uncertain.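 Imaging used 1,536-well plates; nuclei positive for cleaved PARP by antibody were divided by total DNA-stained nuclei to yield the apoptosis fraction. Doses for screening kept most cells viable, and cell lines differ markedly in resting and induced cleaved-PARP levels.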
# Tests used:
# Assay in all cases: cleaved PARP positive nuclei fraction relative to DMSO control; melanoma cells; higher = more apoptosis
# Details in all cases: library dose: low library concentration; 72 h
# MZ2-MEL = tested on: MZ2-MEL
# MeWo = tested on: MeWo
# RPMI7951 = tested on: RPMI7951
# RVH-421 = tested on: RVH-421
# SkMel28 = tested on: SkMel28
# SkMel30 = tested on: SkMel30
# UACC62 = tested on: UACC62
# WM115 = tested on: WM115
# WM1716 = tested on: WM1716
# WM1745 = tested on: WM1745
# WM3526 = tested on: WM3526
# WM3619 = tested on: WM3619
# WM451Lu = tested on: WM451Lu
# SkMel2 = tested on: SkMel2
# SkMel5 = tested on: SkMel5
# UACC257 = tested on: UACC257
SMILES,cleaved PARP positive nuclei fraction (MZ2-MEL) [%],cleaved PARP positive nuclei fraction (MeWo) [%],cleaved PARP positive nuclei fraction (RPMI7951) [%],cleaved PARP positive nuclei fraction (RVH-421) [%],cleaved PARP positive nuclei fraction (SkMel28) [%],cleaved PARP positive nuclei fraction (SkMel30) [%],cleaved PARP positive nuclei fraction (UACC62) [%],cleaved PARP positive nuclei fraction (WM115) [%],cleaved PARP positive nuclei fraction (WM1716) [%],cleaved PARP positive nuclei fraction (WM1745) [%],cleaved PARP positive nuclei fraction (WM3526) [%],cleaved PARP positive nuclei fraction (WM3619) [%],cleaved PARP positive nuclei fraction (WM451Lu) [%],cleaved PARP positive nuclei fraction (SkMel2) [%],cleaved PARP positive nuclei fraction (SkMel5) [%],cleaved PARP positive nuclei fraction (UACC257) [%]
"Cc1cn(-c2cc(NC(=O)c3ccc(C)c(Nc4nccc(-c5cccnc5)n4)c3)cc(C(F)(F)F)c2)cn1 [nilotinib] + Nc1cccc2c1CN(C1CCC(=O)NC1=O)C2=O [lenalidomide] (first compound 0.2 µM, partner dose 1 µM)",176,200,103,29.9,38,97.5,95.3,129,38,114,81.1,81.5,90.3,,,
"Cc1cc(Nc2cc(N3CCN(C)CC3)nc(Sc3ccc(NC(=O)C4CC4)cc3)n2)n[nH]1 [Tozasertib] + Nc1cccc2c1CN(C1CCC(=O)NC1=O)C2=O [lenalidomide] (first compound 0.006 µM, partner dose 1 µM)",154,52.3,84.3,36.8,45.6,39.5,60.4,204,99.2,114,87.9,94,84.6,,,
"O=C(Nc1cc(C(F)(F)F)cc(C(F)(F)F)c1)c1cc(Cl)ccc1O + CO[C@H]1C[C@@H]2CC[C@@H](C)[C@@](O)(O2)C(=O)C(=O)N2CCCC[C@H]2C(=O)O[C@H]([C@H](C)C[C@@H]2CC[C@@H](OCCO)[C@H](OC)C2)CC(=O)[C@H](C)/C=C(\C)[C@@H](O)[C@@H](OC)C(=O)[C@H](C)C[C@H](C)/C=C/C=C/C=C/1C [everolimus] (first compound 0.016 µM, partner dose 0.02 µM)",43.1,156,182,159,285,398,112,137,96.1,118,177,148,108,,,
"Cc1cn(-c2cc(NC(=O)c3ccc(C)c(Nc4nccc(-c5cccnc5)n4)c3)cc(C(F)(F)F)c2)cn1 [nilotinib] + Nc1nc(F)nc2c1ncn2[C@@H]1O[C@H](CO)[C@@H](O)[C@@H]1O [fludarabine] (first compound 0.2 µM, partner dose 0.2 µM)",104,409,101,251,259,427,109,259,71.3,89.4,632,111,159,,,
"COc1cc([C@@H]2c3cc4c(cc3[C@@H](O[C@@H]3O[C@@H]5CO[C@@H](C)O[C@H]5[C@H](O)[C@H]3O)[C@H]3COC(=O)[C@H]23)OCO4)cc(OC)c1O [etoposide] + CO[C@H]1C[C@@H]2CC[C@@H](C)[C@@](O)(O2)C(=O)C(=O)N2CCCC[C@H]2C(=O)O[C@H]([C@H](C)C[C@@H]2CC[C@@H](OCCO)[C@H](OC)C2)CC(=O)[C@H](C)/C=C(\C)[C@@H](O)[C@@H](OC)C(=O)[C@H](C)C[C@H](C)/C=C/C=C/C=C/1C [everolimus] (first compound 0.02 µM, partner dose 0.02 µM)",99.5,125,58.2,171,147,25.6,294,109,45.3,103,73.4,144,41.3,,,
"Cc1cc(Nc2cc(N3CCN(C)CC3)nc(Sc3ccc(NC(=O)C4CC4)cc3)n2)n[nH]1 [Tozasertib] + CO[C@H]1C[C@@H]2CC[C@@H](C)[C@@](O)(O2)C(=O)C(=O)N2CCCC[C@H]2C(=O)O[C@H]([C@H](C)C[C@@H]2CC[C@@H](OCCO)[C@H](OC)C2)CC(=O)[C@H](C)/C=C(\C)[C@@H](O)[C@@H](OC)C(=O)[C@H](C)C[C@H](C)/C=C/C=C/C=C/1C [everolimus] (first compound 0.006 µM, partner dose 0.02 µM)",135,80.6,40.1,122,151,139,244,144,556,139,116,115,44.3,,,
"O=C(Nc1cc(C(F)(F)F)cc(C(F)(F)F)c1)c1cc(Cl)ccc1O + CCCCCCCCc1ccc(CCC(N)(CO)CO)cc1 [fingolimod] (first compound 0.016 µM, partner dose 2 µM)",89,71.1,192,47.7,85.1,44.2,63,122,35,78.2,81.1,89.6,140,,,
"Cc1cn(-c2cc(NC(=O)c3ccc(C)c(Nc4nccc(-c5cccnc5)n4)c3)cc(C(F)(F)F)c2)cn1 [nilotinib] + CCc1ccc(CCOc2ccc(CC3SC(=O)NC3=O)cc2)nc1 [pioglitazone] (first compound 0.2 µM, partner dose 2 µM)",,86.6,37.8,151,97.5,22.6,94.2,98.1,151,89.5,77,99.9,94.9,518,73.6,150
"O=C(Nc1cc(C(F)(F)F)cc(C(F)(F)F)c1)c1cc(Cl)ccc1O + Cn1cc(/C=C2\C(=O)Nc3cccnc32)c2ccccc21 [GW441756] (first compound 0.016 µM, partner dose 0.4 µM)",,197,69.6,101,73.8,22.6,76,127,87.2,97.7,73.2,96.9,36.5,39.7,292,40.5
"O=c1[nH]nc(Sc2ncc([N+](=O)[O-])s2)n1-c1ccc2c(c1)OCCO2 + Cc1cc(Nc2cc(N3CCN(C)CC3)nc(/C=C/c3ccccc3)n2)n[nH]1 [ENMD2076] (first compound 0.2 µM, partner dose 0.04 µM)",73.2,54,70.9,87.9,73.5,96.3,35,120,39.2,94.6,34,69.6,83.5,,,
"Cc1ccc(Nc2nccc(N(C)c3ccc4c(C)n(C)nc4c3)n2)cc1S(N)(=O)=O [Pazopanib] + O=C(O)c1ccc(-c2c[nH]c3ncc(-c4ccccc4)cc23)cc1C1CCCC1 [GSK650394] (first compound 0.4 µM, partner dose 0.16 µM)",,54.5,161,28.2,68.1,74.6,87.1,165,56.1,81.2,136,87,120,75.6,288,155
"O=c1[nH]nc(Sc2ncc([N+](=O)[O-])s2)n1-c1ccc2c(c1)OCCO2 + CN(c1ncccc1CNc1nc(Nc2ccc3c(c2)CC(=O)N3)ncc1C(F)(F)F)S(C)(=O)=O [PF562271] (first compound 0.2 µM, partner dose 0.08 µM)",177,120,54.3,89.5,109,37,119,121,149,107,78.6,102,102,,,
"CC[C@]1(O)C[C@H]2CN(CCc3c([nH]c4ccccc34)[C@@](C(=O)OC)(c3cc4c(cc3OC)N(C=O)[C@H]3[C@@](O)(C(=O)OC)[C@H](OC(C)=O)[C@]5(CC)C=CCN6CC[C@]43[C@@H]65)C2)C1 [vincristine] + CO[C@H]1C[C@@H]2CC[C@@H](C)[C@@](O)(O2)C(=O)C(=O)N2CCCC[C@H]2C(=O)O[C@H]([C@H](C)C[C@@H]2CC[C@@H](OCCO)[C@H](OC)C2)CC(=O)[C@H](C)/C=C(\C)[C@@H](O)[C@@H](OC)C(=O)[C@H](C)C[C@H](C)/C=C/C=C/C=C/1C [everolimus] (first compound 0.0001 µM, partner dose 0.02 µM)",85,285,164,131,747,178,1580,2350,189,129,71.6,207,203,,,
"O=C(Nc1cc(C(F)(F)F)cc(C(F)(F)F)c1)c1cc(Cl)ccc1O + COc1ccc2c(c1)CCC1C2CCC2(C)C(NCCCCCCN3C(=O)C=CC3=O)CCC12 [U73122] (first compound 0.016 µM, partner dose 0.4 µM)",,71.5,95.8,17.4,131,35.3,111,50.3,85.7,81.4,70,75.6,212,57.7,75.8,107
"N#CC[C@H](C1CCCC1)n1cc(-c2ncnc3[nH]ccc23)cn1 [ruxolitinib] + OCCn1cc(-c2cnc3nnn(Cc4ccc5ncccc5c4)c3n2)cn1 [PF04217903] (first compound 1 µM, partner dose 1 µM)",,77.4,99.7,33.1,74.3,68.1,185,131,66.9,103,64.4,86.8,106,128,129,82.7
"CC[C@]1(O)C[C@H]2CN(CCc3c([nH]c4ccccc34)[C@@](C(=O)OC)(c3cc4c(cc3OC)N(C=O)[C@H]3[C@@](O)(C(=O)OC)[C@H](OC(C)=O)[C@]5(CC)C=CCN6CC[C@]43[C@@H]65)C2)C1 [vincristine] + CCCCCCCCCCCCCCCCCCOP(=O)([O-])OC1CC[N+](C)(C)CC1 [Perifosine] (first compound 0.0001 µM, partner dose 0.4 µM)",147,66,127,48.2,110,259,101,1200,159,190,125,253,140,,,
"Cc1cc(Nc2cc(N3CCN(C)CC3)nc(Sc3ccc(NC(=O)C4CC4)cc3)n2)n[nH]1 [Tozasertib] + Cc1cc([N+](=O)[O-])ccc1NS(=O)(=O)c1cc(Cl)ccc1Cl [FH535] (first compound 0.006 µM, partner dose 1 µM)",,115,79.2,112,64.2,46.5,87.5,85.4,132,108,90.1,81.3,45.5,132,164,38

# Nothing new here: entries from further up.
SMILES,cleaved PARP positive nuclei fraction (MZ2-MEL) [%],cleaved PARP positive nuclei fraction (MeWo) [%],cleaved PARP positive nuclei fraction (RPMI7951) [%],cleaved PARP positive nuclei fraction (RVH-421) [%],cleaved PARP positive nuclei fraction (SkMel28) [%],cleaved PARP positive nuclei fraction (SkMel30) [%],cleaved PARP positive nuclei fraction (UACC62) [%],cleaved PARP positive nuclei fraction (WM115) [%],cleaved PARP positive nuclei fraction (WM1716) [%],cleaved PARP positive nuclei fraction (WM1745) [%],cleaved PARP positive nuclei fraction (WM3526) [%],cleaved PARP positive nuclei fraction (WM3619) [%],cleaved PARP positive nuclei fraction (WM451Lu) [%],cleaved PARP positive nuclei fraction (SkMel2) [%],cleaved PARP positive nuclei fraction (SkMel5) [%],cleaved PARP positive nuclei fraction (UACC257) [%]
"COc1cc([C@@H]2c3cc4c(cc3[C@@H](O[C@@H]3O[C@@H]5CO[C@@H](C)O[C@H]5[C@H](O)[C@H]3O)[C@H]3COC(=O)[C@H]23)OCO4)cc(OC)c1O [etoposide] + CO[C@H]1C[C@@H]2CC[C@@H](C)[C@@](O)(O2)C(=O)C(=O)N2CCCC[C@H]2C(=O)O[C@H]([C@H](C)C[C@@H]2CC[C@@H](OCCO)[C@H](OC)C2)CC(=O)[C@H](C)/C=C(\C)[C@@H](O)[C@@H](OC)C(=O)[C@H](C)C[C@H](C)/C=C/C=C/C=C/1C [everolimus] (first compound 0.02 µM, partner dose 0.02 µM)",99.5,125,58.2,171,147,25.6,294,109,45.3,103,73.4,144,41.3,,,
"Cc1cc(Nc2cc(N3CCN(C)CC3)nc(Sc3ccc(NC(=O)C4CC4)cc3)n2)n[nH]1 [Tozasertib] + CO[C@H]1C[C@@H]2CC[C@@H](C)[C@@](O)(O2)C(=O)C(=O)N2CCCC[C@H]2C(=O)O[C@H]([C@H](C)C[C@@H]2CC[C@@H](OCCO)[C@H](OC)C2)CC(=O)[C@H](C)/C=C(\C)[C@@H](O)[C@@H](OC)C(=O)[C@H](C)C[C@H](C)/C=C/C=C/C=C/1C [everolimus] (first compound 0.006 µM, partner dose 0.02 µM)",135,80.6,40.1,122,151,139,244,144,556,139,116,115,44.3,,,
"O=C(Nc1cc(C(F)(F)F)cc(C(F)(F)F)c1)c1cc(Cl)ccc1O + CCCCCCCCc1ccc(CCC(N)(CO)CO)cc1 [fingolimod] (first compound 0.016 µM, partner dose 2 µM)",89,71.1,192,47.7,85.1,44.2,63,122,35,78.2,81.1,89.6,140,,,

# From the supplement of paper PMC4604168 (melanoma cell lines)
